Results published in the supplement of paper PMC7666118.
Some of the results follow.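 The calls were made as follows: active = dose-dependent thermal stabilisation significant by F-test of dose-response against flat model at 10% FDR; inactive = not significant.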

Chains of the proteins cited; added tags and fusions are not shown. Lines headed by an entry give the natural chain unless they say otherwise; changes in a name come on top.
UniProt Q4VC05, whole entry: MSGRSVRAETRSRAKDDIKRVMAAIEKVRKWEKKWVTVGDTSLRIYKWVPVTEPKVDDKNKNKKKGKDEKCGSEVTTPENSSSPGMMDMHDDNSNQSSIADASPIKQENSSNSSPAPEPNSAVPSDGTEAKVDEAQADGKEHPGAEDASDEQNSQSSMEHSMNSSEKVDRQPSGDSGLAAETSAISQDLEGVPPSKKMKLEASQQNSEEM
UniProt Q14155: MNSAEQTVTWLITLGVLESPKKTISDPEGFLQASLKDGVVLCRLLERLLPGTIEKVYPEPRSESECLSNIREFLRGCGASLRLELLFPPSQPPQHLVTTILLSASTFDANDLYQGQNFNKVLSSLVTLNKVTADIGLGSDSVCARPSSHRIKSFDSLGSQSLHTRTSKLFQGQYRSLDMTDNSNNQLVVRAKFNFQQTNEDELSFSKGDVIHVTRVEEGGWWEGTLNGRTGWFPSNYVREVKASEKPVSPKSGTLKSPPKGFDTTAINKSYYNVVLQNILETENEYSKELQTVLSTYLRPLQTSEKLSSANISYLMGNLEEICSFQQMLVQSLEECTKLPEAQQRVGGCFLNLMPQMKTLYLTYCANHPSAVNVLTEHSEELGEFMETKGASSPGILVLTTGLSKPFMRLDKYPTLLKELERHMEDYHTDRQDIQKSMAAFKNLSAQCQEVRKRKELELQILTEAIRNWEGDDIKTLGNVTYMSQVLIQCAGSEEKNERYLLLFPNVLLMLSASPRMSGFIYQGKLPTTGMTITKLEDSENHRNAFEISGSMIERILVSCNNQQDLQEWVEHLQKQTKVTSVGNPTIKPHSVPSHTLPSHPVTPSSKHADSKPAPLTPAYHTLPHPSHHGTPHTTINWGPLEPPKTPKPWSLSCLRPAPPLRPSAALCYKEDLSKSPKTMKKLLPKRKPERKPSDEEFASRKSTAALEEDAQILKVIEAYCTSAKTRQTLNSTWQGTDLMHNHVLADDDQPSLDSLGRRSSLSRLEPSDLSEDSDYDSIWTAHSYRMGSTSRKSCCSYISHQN
UniProt Q3KRA6: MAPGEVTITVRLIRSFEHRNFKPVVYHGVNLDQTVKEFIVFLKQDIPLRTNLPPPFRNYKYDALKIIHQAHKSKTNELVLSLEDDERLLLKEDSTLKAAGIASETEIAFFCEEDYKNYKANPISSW
UniProt Q9BXL7: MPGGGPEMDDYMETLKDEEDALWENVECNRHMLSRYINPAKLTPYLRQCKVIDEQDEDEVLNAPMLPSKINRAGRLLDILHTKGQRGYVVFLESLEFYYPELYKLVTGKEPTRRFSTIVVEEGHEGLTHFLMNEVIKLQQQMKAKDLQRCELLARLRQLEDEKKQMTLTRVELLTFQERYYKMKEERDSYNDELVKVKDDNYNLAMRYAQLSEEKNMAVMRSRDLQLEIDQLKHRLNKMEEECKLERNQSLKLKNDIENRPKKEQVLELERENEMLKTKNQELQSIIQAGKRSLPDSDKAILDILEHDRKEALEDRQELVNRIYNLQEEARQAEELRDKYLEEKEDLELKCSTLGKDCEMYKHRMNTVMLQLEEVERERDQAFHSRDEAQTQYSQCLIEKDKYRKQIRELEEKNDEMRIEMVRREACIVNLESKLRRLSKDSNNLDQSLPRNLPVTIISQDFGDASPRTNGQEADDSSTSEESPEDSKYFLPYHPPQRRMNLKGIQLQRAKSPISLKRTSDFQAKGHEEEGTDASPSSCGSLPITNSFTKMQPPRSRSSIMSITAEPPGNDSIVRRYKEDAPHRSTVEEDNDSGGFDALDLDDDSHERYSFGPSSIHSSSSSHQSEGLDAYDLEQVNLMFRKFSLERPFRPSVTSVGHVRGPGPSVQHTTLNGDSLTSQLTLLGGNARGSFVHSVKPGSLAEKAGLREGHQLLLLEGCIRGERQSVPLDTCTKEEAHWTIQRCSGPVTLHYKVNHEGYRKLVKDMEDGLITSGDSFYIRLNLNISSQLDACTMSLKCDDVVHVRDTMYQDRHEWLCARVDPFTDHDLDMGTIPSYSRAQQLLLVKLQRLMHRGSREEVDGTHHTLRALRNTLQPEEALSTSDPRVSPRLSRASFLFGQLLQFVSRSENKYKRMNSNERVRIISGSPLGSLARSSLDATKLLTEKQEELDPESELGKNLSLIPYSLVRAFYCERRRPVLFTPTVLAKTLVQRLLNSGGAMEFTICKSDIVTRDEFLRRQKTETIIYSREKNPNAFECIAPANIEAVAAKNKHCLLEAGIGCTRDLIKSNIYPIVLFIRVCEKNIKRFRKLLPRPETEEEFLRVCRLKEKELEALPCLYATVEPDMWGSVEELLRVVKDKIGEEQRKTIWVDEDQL
UniProt Q9UBL0: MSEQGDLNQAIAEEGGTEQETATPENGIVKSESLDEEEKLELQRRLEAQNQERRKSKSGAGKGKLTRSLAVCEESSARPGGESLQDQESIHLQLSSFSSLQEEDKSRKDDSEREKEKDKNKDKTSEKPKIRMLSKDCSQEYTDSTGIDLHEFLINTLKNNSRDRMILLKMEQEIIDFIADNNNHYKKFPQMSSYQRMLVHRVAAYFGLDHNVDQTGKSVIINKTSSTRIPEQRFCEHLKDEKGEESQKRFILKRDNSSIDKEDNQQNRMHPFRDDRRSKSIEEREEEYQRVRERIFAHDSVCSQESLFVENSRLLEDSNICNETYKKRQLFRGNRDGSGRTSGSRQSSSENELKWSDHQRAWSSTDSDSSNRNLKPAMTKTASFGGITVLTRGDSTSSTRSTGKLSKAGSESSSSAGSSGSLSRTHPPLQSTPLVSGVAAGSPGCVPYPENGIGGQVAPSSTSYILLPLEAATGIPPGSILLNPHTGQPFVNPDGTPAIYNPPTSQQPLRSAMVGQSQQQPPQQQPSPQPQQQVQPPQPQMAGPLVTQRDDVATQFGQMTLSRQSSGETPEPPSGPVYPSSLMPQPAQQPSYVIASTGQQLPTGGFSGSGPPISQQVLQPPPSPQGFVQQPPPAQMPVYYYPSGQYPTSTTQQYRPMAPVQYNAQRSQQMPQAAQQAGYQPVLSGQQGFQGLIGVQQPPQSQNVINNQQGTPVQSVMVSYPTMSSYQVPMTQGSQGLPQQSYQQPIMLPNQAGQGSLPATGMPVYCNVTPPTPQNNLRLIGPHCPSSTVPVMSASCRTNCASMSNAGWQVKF
UniProt Q96C57: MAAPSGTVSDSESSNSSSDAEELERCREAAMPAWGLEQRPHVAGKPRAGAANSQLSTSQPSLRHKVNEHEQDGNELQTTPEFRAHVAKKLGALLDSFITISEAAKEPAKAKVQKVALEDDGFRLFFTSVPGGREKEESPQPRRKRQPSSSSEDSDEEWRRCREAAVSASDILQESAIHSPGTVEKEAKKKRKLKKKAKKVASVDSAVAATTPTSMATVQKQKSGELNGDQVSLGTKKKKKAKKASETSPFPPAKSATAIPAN
UniProt B2RBV5: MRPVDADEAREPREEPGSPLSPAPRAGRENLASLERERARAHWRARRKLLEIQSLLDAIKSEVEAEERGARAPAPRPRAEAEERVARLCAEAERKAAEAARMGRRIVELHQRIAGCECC
UniProt Q96NL8: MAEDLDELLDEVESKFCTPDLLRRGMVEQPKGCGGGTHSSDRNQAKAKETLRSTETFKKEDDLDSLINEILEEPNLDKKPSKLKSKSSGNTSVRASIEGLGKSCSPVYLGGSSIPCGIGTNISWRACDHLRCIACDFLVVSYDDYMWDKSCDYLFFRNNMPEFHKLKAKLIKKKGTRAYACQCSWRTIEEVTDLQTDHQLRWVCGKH
UniProt Q9NRL2: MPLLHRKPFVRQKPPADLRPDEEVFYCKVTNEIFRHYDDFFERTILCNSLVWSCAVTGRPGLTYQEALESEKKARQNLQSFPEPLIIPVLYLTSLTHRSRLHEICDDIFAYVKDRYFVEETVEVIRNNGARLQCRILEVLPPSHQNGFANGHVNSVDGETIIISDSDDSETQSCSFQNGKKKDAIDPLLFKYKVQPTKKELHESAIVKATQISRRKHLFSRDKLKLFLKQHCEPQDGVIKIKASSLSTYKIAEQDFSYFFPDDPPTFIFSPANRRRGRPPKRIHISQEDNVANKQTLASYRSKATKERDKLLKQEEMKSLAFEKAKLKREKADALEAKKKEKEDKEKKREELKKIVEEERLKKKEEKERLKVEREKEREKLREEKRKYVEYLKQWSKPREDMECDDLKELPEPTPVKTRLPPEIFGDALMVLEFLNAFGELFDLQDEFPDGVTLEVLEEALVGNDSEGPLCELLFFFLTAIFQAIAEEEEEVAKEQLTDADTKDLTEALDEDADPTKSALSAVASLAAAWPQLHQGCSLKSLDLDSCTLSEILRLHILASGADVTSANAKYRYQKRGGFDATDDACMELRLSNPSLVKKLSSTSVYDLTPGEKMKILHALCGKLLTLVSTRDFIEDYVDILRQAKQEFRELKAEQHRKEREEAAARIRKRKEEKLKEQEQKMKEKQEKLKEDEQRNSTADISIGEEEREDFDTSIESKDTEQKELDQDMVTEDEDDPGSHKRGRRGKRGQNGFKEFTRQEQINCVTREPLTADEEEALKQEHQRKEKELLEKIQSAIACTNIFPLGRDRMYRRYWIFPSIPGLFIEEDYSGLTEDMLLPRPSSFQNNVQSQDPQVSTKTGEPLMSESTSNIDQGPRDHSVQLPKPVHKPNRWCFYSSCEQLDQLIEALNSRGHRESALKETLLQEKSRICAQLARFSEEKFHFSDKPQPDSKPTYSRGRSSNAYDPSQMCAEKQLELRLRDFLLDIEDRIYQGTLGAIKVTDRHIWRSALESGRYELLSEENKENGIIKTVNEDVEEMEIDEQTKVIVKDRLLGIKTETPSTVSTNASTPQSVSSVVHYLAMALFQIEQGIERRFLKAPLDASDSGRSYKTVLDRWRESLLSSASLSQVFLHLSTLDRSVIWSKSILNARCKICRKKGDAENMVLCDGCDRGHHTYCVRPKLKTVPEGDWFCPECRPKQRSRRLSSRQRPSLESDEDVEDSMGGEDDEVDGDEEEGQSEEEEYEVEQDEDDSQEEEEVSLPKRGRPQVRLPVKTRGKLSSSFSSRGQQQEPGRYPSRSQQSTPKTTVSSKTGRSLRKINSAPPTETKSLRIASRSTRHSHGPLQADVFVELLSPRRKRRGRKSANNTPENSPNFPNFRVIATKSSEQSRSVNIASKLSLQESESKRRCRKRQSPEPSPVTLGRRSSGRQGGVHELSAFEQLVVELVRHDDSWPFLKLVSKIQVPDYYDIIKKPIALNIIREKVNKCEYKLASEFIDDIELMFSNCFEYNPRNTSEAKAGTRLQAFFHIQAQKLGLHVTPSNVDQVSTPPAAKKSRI
UniProt P40121: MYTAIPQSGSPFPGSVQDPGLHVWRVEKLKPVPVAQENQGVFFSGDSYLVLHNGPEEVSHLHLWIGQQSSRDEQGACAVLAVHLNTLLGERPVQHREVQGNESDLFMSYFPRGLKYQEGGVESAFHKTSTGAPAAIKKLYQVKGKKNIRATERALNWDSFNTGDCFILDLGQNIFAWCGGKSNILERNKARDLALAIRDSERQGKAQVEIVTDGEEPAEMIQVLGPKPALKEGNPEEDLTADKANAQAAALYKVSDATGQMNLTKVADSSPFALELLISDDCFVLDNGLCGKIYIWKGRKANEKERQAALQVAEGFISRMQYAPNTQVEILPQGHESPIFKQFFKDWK
UniProt O00499: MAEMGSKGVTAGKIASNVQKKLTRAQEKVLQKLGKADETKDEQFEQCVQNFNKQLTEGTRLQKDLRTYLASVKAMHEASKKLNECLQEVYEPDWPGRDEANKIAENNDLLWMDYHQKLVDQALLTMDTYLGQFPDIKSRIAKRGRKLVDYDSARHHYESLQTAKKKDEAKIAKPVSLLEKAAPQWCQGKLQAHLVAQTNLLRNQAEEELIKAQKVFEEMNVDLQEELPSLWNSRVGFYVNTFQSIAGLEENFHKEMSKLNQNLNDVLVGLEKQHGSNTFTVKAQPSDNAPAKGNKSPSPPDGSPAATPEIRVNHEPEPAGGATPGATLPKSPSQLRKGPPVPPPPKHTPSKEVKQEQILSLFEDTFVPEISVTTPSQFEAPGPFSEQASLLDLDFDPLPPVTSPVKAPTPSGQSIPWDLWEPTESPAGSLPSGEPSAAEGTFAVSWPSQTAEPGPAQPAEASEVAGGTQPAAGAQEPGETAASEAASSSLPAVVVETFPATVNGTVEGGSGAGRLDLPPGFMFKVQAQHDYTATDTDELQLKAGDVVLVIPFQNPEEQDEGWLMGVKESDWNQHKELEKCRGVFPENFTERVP
UniProt P54252: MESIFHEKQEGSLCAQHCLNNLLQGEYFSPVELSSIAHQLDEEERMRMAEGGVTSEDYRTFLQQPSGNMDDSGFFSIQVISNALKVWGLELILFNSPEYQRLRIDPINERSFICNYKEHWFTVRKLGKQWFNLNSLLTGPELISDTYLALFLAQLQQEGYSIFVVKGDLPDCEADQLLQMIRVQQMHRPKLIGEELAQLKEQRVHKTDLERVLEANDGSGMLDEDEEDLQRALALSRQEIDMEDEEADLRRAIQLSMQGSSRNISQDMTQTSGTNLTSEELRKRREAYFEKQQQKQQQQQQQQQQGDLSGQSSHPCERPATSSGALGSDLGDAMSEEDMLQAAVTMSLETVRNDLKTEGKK

compound: Nc1nc2c(ncn2[C@@H]2O[C@H](COP(=O)(O)OP(=O)(O)OP(=O)(O)O)[C@@H](O)[C@H]2O)c(=O)[nH]1; experiment: dose-dependent thermal stabilisation call (2D-TPP, DLPTP, 10% FDR) (binary (1 = stabilised)); higher = stabilised by the compound; conditions: system: Jurkat gel-filtered lysate; concentration range 1-500 µM
Procedure: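 2D thermal proteome profiling in gel-filtered Jurkat E6.1 lysate (2 mg/ml) treated with NaGTP (0, 1, 10, 100, 500 uM) for 10 min at room temperature, then heated 3 min at one of 12 temperatures (42-63.9 C). Soluble protein was quantified by TMT10 MS. The value is the DLPTP call of the paper: dose-dependent thermal stabilisation over all temperatures at 10% FDR (F-test of a dose-response against a flat model); one experiment, one call per tested protein.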

Row | Target | dose-dependent thermal stabilisation call
1 | BCL7A (UniProt Q4VC05) | inactive: 0
2 | C16orf70 (UniProt Q9BSU1) | inactive: 0
3 | ARHGEF7 (UniProt Q14155) | inactive: 0
4 | C2orf76 (UniProt Q3KRA6) | inactive: 0
5 | ARIH2 (UniProt O95376) | inactive: 0
6 | CALCOCO1 (UniProt Q9P1Z2) | inactive: 0
7 | ARMT1 (UniProt Q9H993) | active: 1
8 | CARMIL2 (UniProt Q6F5E8) | inactive: 0
9 | CARD11 (UniProt Q9BXL7) | inactive: 0
10 | CAMKMT (UniProt Q7Z624) | inactive: 0
11 | C11orf54 (UniProt Q9H0W9) | inactive: 0
12 | ARPP21 (UniProt Q9UBL0) | inactive: 0
13 | C12orf43 (UniProt Q96C57) | inactive: 0
14 | NA (UniProt B2RBV5) | inactive: 0
15 | ARMC1 (UniProt Q9NVT9) | inactive: 0
16 | ASCC1 (UniProt Q8N9N2) | inactive: 0
17 | ATP5A1 (UniProt P25705) | active: 1
18 | C8orf37 (UniProt Q96NL8) | inactive: 0
19 | BAZ1A (UniProt Q9NRL2) | inactive: 0
20 | BAG5 (UniProt Q9UL15) | inactive: 0

Row | Target | dose-dependent thermal stabilisation call
21 | C19orf57 (UniProt Q0VDD7) | inactive: 0
22 | ATP6V1D (UniProt Q9Y5K8) | inactive: 0
23 | BCL2L13 (UniProt Q9BXK5) | inactive: 0
24 | ARPC3 (UniProt O15145) | inactive: 0
25 | BPHL (UniProt Q86WA6) | inactive: 0
26 | CAPN7 (UniProt Q9Y6W3) | active: 1
27 | ARPC5L (UniProt Q9BPX5) | inactive: 0
28 | BUD23 (UniProt O43709) | inactive: 0
29 | ATXN2 (UniProt Q99700) | inactive: 0
30 | ASF1A (UniProt Q9Y294) | inactive: 0
31 | BRAP (UniProt Q7Z569) | inactive: 0
32 | CAPG (UniProt P40121) | inactive: 0
33 | ATE1 (UniProt O95260) | inactive: 0
34 | B3GLCT (UniProt Q6Y288) | active: 1
35 | BABAM1 (UniProt Q9NWV8) | inactive: 0
36 | BIN1 (UniProt O00499) | inactive: 0
37 | BCLAF1 (UniProt Q9NYF8) | active: 1
38 | ATXN3 (UniProt P54252) | inactive: 0
39 | BPNT1 (UniProt O95861) | inactive: 0
40 | BLOC1S5 (UniProt Q8TDH9) | inactive: 0

3 entries from above, as tab-separated lines.
Row	Target	dose-dependent thermal stabilisation call
30	ASF1A (UniProt Q9Y294)	inactive: 0
31	BRAP (UniProt Q7Z569)	inactive: 0
32	CAPG (UniProt P40121)	inactive: 0
